In the supplement of paper PMC9135407:
Values joined by “and” are separate entries in the source; they are usually repeats but may differ in a detail not shown here. Identical values can stand only once. Counter-ions that a name gives are not always drawn. ± gives the standard deviation of the averaged measurements. Some of the results follow. Plates or batches differ in their baseline, so values are only roughly comparable.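 Culture-activated primary human stellate myofibroblasts, where regained lipid droplets signal inactivation. Value: share of Hoechst-counted cells above a per-plate Bodipy cutoff, in duplicate wells, with DMSO negative and nortriptyline positive controls on each plate. Hits: a control-normalized score above the plate's top-tenth-percentile nortriptyline wells, or one of a plate's three best wells. Final well concentrations are not given.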

Test system: primary human hepatic stellate cells (donor 1)
Assay: percent Bodipy-positive cells; higher = more lipid droplet accumulation
Conditions: 48 h
[1] = library stock concentration: 3.33 mM
[2] = library stock concentration: 10 mM
[3] = library stock concentration: 6.3 mM

COc1ccccc1OCCNCC(O)COc1cccc2[nH]c3ccccc3c12 (stereo not drawn) [Carvedilol]
percent Bodipy-positive cells [1]: 19.7 ± 7.3%
percent Bodipy-positive cells (library stock concentration: 4.9 mM): 33.4% and 49.7%

COc1ccccc1OCCNCC(O)COc1cccc2[nH]c3ccccc3c12 (stereo not drawn) [Carvedilol tartrate]
percent Bodipy-positive cells [2]: 53.9 ± 4.5%

Nc1cccc(-c2cc3c(Oc4cccc(O)c4)ncnc3[nH]2)c1
percent Bodipy-positive cells (library stock concentration: 80 uM): 18.05 ± 0.18%
percent Bodipy-positive cells (library stock concentration: 400 uM): 9.97 ± 2.9%
percent Bodipy-positive cells (library stock concentration: 2 mM): 21.5 ± 2%
percent Bodipy-positive cells [1]: 19.6 ± 3.4%
percent Bodipy-positive cells [2]: 44.1% and 31.6%

CC(C)[C@H]1CC[C@H](C(=O)N[C@H](Cc2ccccc2)C(=O)O)CC1 [nateglinide]
percent Bodipy-positive cells [3]: 7.67 ± 2.9%

CC(C)[C@H]1CC[C@H](C(=O)N[C@H](Cc2ccccc2)C(=O)O)CC1
percent Bodipy-positive cells [2]: 9.46 ± 7.4%

CC(C)[C@H]1CC[C@H](C(=O)N[C@H](Cc2ccccc2)C(=O)O)CC1 [Nateglinide]
percent Bodipy-positive cells [1]: 12.7 ± 6.5%
percent Bodipy-positive cells [3]: 9.54 ± 2.8%

COc1c(O)cc2c(c1O)[C@@H]1O[C@H](CO)[C@@H](O)[C@H](O)[C@H]1OC2=O
percent Bodipy-positive cells [2]: 32.8 ± 10%

COc1c(O)cc2c(c1O)[C@@H]1O[C@H](CO)[C@@H](O)[C@H](O)[C@H]1OC2=O [Bergenin monohydrate]
percent Bodipy-positive cells: 10.8 ± 0.66%

COc1c(O)cc2c(c1O)[C@@H]1O[C@H](CO)[C@@H](O)[C@H](O)[C@H]1OC2=O [Bergenin]
percent Bodipy-positive cells [1]: 10.2 ± 1.9%
percent Bodipy-positive cells [2]: 10.2 ± 4%

CCCCCC(=O)/C=C/C=C\C/C=C\C/C=C\CCCC(=O)O [15-Ketoicosatetraenoic acid]
percent Bodipy-positive cells (library stock concentration: 100 uM): 11 ± 6.8%

COc1ccc(CCCOC(Cn2ccnc2)c2ccc(OC)cc2)cc1 (stereo not drawn)
percent Bodipy-positive cells (library stock concentration: 1 mM): 11.2 ± 0.76%
percent Bodipy-positive cells (library stock concentration: 13.6 mM): 57.9 ± 3.8%

COc1ccc(-n2nc(C(N)=O)c3c2C(=O)N(c2ccc(N4CCCCC4=O)cc2)CC3)cc1 [Apixaban]
percent Bodipy-positive cells [1]: 11.9 ± 2.1%
percent Bodipy-positive cells [2]: 16 ± 2.7%

CN1CCN(C2=Nc3cc(Cl)ccc3Nc3ccccc32)CC1 [Clozapine]
percent Bodipy-positive cells: 83.5 ± 4.7%

COc1ccc(C(C)=O)c(O)c1 [Paeonol]
percent Bodipy-positive cells [1]: 8.99 ± 4.5%
percent Bodipy-positive cells [2]: 16.5 ± 2.7%

c1ccc(N2CCN(CCCOc3ccc4c(c3)OCO4)CC2)cc1 [BP 554 maleate]
percent Bodipy-positive cells [2]: 10.7 ± 1.4%

CS(=O)(=O)O.Cc1ccc2c(c1)c1c3n2CCNC3CCC1 (stereo not drawn) [Pirlindole mesylate]
percent Bodipy-positive cells [2]: 55.61 ± 0.34%

CN(C)c1nc(N)c(C(=O)NC(=N)N)nc1Cl [5-(N,N-Dimethyl)amiloride hydrochloride]
percent Bodipy-positive cells [2]: 50.4 ± 18%

N[C@@H](C(=O)O)c1ccc(O)c(C(=O)O)c1 [(R)-3-Carboxy-4-hydroxyphenylglycine]
percent Bodipy-positive cells [2]: 10.2 ± 3.6%

CCn1cc(C(=O)O)c(=O)c2cc(F)c(N3CCNCC3)cc21 [Norfloxacin]
percent Bodipy-positive cells: 25.2 ± 2.9%
percent Bodipy-positive cells [3]: 8.16% and 3.6%
percent Bodipy-positive cells [2]: 9.25 ± 2.8%

CCn1cc(C(=O)O)c(=O)c2cc(F)c(N3CCNCC3)cc21
percent Bodipy-positive cells [2]: 27.4 ± 5.5%

N[C@H](C(=O)O)[C@H](Cc1ccccc1)C(=O)O [L-Beta-threo-benzyl-aspartate]
percent Bodipy-positive cells [2]: 16.9 ± 0.58%
